Drawing on article doi:10.1101/2023.11.10.566635, this text covers binding for four molecules.

Chains of the proteins cited; added tags and fusions are not shown.
UniProt Q9WTX5: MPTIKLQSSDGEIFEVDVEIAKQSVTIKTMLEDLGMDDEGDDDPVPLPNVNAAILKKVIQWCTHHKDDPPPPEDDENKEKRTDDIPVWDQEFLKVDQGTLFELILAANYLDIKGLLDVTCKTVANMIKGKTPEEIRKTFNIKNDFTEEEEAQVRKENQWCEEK
UniProt Q14974: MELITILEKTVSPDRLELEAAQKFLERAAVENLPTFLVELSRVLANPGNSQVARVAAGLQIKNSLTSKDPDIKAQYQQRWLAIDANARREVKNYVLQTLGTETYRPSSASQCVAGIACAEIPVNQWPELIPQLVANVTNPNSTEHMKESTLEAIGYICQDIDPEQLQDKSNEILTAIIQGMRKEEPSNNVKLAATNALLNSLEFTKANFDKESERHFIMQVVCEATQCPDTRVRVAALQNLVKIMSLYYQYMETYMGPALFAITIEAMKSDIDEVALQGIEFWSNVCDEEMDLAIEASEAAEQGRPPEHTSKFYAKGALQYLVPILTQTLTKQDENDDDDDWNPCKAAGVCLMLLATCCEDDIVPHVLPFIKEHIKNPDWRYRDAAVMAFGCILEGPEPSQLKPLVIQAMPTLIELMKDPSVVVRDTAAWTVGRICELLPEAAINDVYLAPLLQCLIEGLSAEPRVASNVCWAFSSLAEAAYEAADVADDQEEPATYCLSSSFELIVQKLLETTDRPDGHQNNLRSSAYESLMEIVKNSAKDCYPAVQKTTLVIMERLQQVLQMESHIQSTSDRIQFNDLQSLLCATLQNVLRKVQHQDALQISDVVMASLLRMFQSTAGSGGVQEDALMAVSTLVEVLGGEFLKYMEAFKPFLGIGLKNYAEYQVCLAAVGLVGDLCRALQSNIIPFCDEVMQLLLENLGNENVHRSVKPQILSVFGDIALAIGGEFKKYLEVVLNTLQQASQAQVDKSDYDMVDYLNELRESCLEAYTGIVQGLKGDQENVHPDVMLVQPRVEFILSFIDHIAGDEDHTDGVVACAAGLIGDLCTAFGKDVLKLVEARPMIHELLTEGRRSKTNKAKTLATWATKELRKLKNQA

These are yes or no findings as the source states them, for the method shown. Binding seen in cells or lysates may run through a third protein. Some binding calls cover weakened binding; strength is not graded here. Tags and fused reporters may be left off the sequences shown.

In experiment [1] the target is T1, FBXO24 (WT) tagged with 3×FLAG (mouse) (UniProt Q9D417).
T1 sequence: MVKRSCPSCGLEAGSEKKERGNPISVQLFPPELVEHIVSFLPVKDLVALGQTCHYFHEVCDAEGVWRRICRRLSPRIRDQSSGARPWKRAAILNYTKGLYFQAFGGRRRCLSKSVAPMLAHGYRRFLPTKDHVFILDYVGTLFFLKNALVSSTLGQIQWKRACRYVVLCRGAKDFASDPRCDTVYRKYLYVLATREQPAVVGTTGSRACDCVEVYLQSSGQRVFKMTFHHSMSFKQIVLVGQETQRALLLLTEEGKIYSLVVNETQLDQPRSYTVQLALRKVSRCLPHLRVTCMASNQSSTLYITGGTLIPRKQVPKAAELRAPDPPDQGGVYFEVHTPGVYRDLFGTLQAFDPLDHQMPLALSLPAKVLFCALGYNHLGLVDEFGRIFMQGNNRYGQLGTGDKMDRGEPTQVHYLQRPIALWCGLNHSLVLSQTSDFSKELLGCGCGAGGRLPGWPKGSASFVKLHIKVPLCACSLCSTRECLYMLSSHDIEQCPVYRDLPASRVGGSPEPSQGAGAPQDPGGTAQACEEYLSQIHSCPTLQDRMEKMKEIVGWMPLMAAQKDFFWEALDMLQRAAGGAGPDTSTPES
Put plainly: co-IP; 3×FLAG-tagged Fbxo24 transiently expressed in HEK293T cells; IP with anti-FLAG antibody; immunoblot of endogenous IPO5 and KPNB1. (In western blotting, separated proteins are transferred to a membrane and probed.)

Another experiment concerns the target SKP1-1D4 (mouse) (UniProt Q9WTX5). As to the kind of experiment: co-IP; Fbxo24 (WT or ΔF)-FLAG co-expressed with Skp1-1D4 in HEK293T cells; IP with anti-1D4 or anti-FLAG antibody on Protein G magnetic beads, 1 h at 4°C; 1% Triton X-100 lysis buffer, 50 mM Tris-HCl pH 7.4, 150 mM NaCl; immunoblot.
Experiment [2] concerns the target T2, 3×FLAG-tagged FBXO24 expressed in transgenic mouse testes (mouse) (UniProt Q9D417).
T2 sequence: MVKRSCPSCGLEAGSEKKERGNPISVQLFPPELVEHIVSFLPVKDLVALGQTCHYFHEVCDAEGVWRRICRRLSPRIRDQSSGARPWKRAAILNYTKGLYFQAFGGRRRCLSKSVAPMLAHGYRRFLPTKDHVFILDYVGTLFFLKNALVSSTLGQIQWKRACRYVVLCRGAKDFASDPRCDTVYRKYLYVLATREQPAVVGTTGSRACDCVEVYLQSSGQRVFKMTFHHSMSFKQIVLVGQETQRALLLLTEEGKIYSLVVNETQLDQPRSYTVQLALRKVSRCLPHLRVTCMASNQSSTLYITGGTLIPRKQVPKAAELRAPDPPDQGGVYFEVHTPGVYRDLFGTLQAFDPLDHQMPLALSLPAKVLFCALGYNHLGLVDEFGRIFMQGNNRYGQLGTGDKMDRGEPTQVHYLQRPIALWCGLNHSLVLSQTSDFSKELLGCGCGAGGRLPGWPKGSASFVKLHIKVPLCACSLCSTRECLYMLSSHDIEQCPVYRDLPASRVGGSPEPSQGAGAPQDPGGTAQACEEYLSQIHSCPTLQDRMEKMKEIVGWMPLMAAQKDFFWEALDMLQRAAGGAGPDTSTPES
As to the kind of experiment: co-IP; IP of FBXO24-FLAG with anti-FLAG antibody from Fbxo24-FLAG Tg mouse testes; immunoblot with mouse anti-IPO5 monoclonal antibody.

“KPNB1 (karyopherin subunit beta 1), endogenous in HEK293T cells (from UniProt Q14974 1-876)”: in experiment [1], the binding entry is listed as “no binding”.

B1: FBXO24 (WT) tagged with 3×FLAG (protein, UniProt Q9D417 1-589)
chain: MVKRSCPSCGLEAGSEKKERGNPISVQLFPPELVEHIVSFLPVKDLVALGQTCHYFHEVCDAEGVWRRICRRLSPRIRDQSSGARPWKRAAILNYTKGLYFQAFGGRRRCLSKSVAPMLAHGYRRFLPTKDHVFILDYVGTLFFLKNALVSSTLGQIQWKRACRYVVLCRGAKDFASDPRCDTVYRKYLYVLATREQPAVVGTTGSRACDCVEVYLQSSGQRVFKMTFHHSMSFKQIVLVGQETQRALLLLTEEGKIYSLVVNETQLDQPRSYTVQLALRKVSRCLPHLRVTCMASNQSSTLYITGGTLIPRKQVPKAAELRAPDPPDQGGVYFEVHTPGVYRDLFGTLQAFDPLDHQMPLALSLPAKVLFCALGYNHLGLVDEFGRIFMQGNNRYGQLGTGDKMDRGEPTQVHYLQRPIALWCGLNHSLVLSQTSDFSKELLGCGCGAGGRLPGWPKGSASFVKLHIKVPLCACSLCSTRECLYMLSSHDIEQCPVYRDLPASRVGGSPEPSQGAGAPQDPGGTAQACEEYLSQIHSCPTLQDRMEKMKEIVGWMPLMAAQKDFFWEALDMLQRAAGGAGPDTSTPES
As for B1, the binding result with SKP1-1D4 (mouse) is reported as “binds”.

B2: IPO5 (importin 5), endogenous in mouse testis (protein, UniProt Q8BKC5 1-1097)
chain: MAAAAAEQQQFYLLLGNLLSPDNVVRKQAEETYENIPGRSKITFLLQAIRNTTAAEEARQMAAVLLRRLLSSAFDEVYPALPSDVQTAIKSELLMIIQMETQSSMRKKICDIAAELARNLIDEDGNNQWPEGLKFLFDSVSSQNMGLREAALHIFWNFPGIFGNQQQHYLDVIKRMLVQCMQDQEHPSIRTLSARATAAFILANEHNVALFKHFADLLPGFLQAVNDSCYQNDDSVLKSLVEIADTVPKYLRPHLEATLQLSLKLCGDTNLNNMQRQLALEVIVTLSETAAAMLRKHTSLIAQTIPQMLAMMVDLEEDEDWANADELEDDDFDSNAVAGESALDRMACGLGGKLVLPMIKEHIMQMLQNPDWKYRHAGLMALSAIGEGCHQQMEGILNEIVNFVLLFLQDPHPRVRYAACNAVGQMATDFAPGFQKKFHEKVIAALLQTMEDQGNQRVQAHAAAALINFTEDCPKSLLIPYLDNLVKHLHSIMVLKLQELIQKGTKLVLEQVVTSIASVADTAEEKFVPYYDLFMPSLKHIVENAVQKELRLLRGKTIECISLIGLAVGKEKFMQDASDVMQLLLKTQTDFNDMEDDDPQISYMISAWARMCKILGKEFQQYLPVVMGPLMKTASIKPEVALLDTQDMENMSDDDGWEFVNLGDQQSFGIKTAGLEEKSTACQMLVCYAKELKEGFVEYTEQVVKLMVPLLKFYFHDGVRVAAAESMPLLLECARVRGPEYLTQMWHFMCDALIKAIGTEPDSDVLSEIMHSFAKCIEVMGDGCLNNEHFEELGGILKAKLEEHFKNQELRQVKRQDEDYDEQVEESLQDEDDNDVYILTKVSDILHSIFSSYKEKVLPWFEQLLPLIVNLICPQRPWPDRQWGLCIFDDIVEHCSPASFKYAEYFISPMLQYVCDNSPEVRQAAAYGLGVMAQFGGDNYRPFCTDALPLLVRVIQAPEAKTKENVNATENCISAVGKIMKFKPDCVNVEEVLPHWLSWLPLHEDKEEAVQTFSYLCDLIESNHPIVLGPNNTNLPKIFSIIAEGEMHEAIKHEDPCAKRLANVVRQVQTSGGLWTECIAQLSPEQQAAIQELLNSA
Turning to B2, the binding entry in experiment [2] is on record as “binds”.

B3: IPO5 (importin 5), endogenous in HEK293T cells (protein, UniProt O00410 1-1097)
chain: MAAAAAEQQQFYLLLGNLLSPDNVVRKQAEETYENIPGQSKITFLLQAIRNTTAAEEARQMAAVLLRRLLSSAFDEVYPALPSDVQTAIKSELLMIIQMETQSSMRKKVCDIAAELARNLIDEDGNNQWPEGLKFLFDSVSSQNVGLREAALHIFWNFPGIFGNQQQHYLDVIKRMLVQCMQDQEHPSIRTLSARATAAFILANEHNVALFKHFADLLPGFLQAVNDSCYQNDDSVLKSLVEIADTVPKYLRPHLEATLQLSLKLCGDTSLNNMQRQLALEVIVTLSETAAAMLRKHTNIVAQTIPQMLAMMVDLEEDEDWANADELEDDDFDSNAVAGESALDRMACGLGGKLVLPMIKEHIMQMLQNPDWKYRHAGLMALSAIGEGCHQQMEGILNEIVNFVLLFLQDPHPRVRYAACNAVGQMATDFAPGFQKKFHEKVIAALLQTMEDQGNQRVQAHAAAALINFTEDCPKSLLIPYLDNLVKHLHSIMVLKLQELIQKGTKLVLEQVVTSIASVADTAEEKFVPYYDLFMPSLKHIVENAVQKELRLLRGKTIECISLIGLAVGKEKFMQDASDVMQLLLKTQTDFNDMEDDDPQISYMISAWARMCKILGKEFQQYLPVVMGPLMKTASIKPEVALLDTQDMENMSDDDGWEFVNLGDQQSFGIKTAGLEEKSTACQMLVCYAKELKEGFVEYTEQVVKLMVPLLKFYFHDGVRVAAAESMPLLLECARVRGPEYLTQMWHFMCDALIKAIGTEPDSDVLSEIMHSFAKCIEVMGDGCLNNEHFEELGGILKAKLEEHFKNQELRQVKRQDEDYDEQVEESLQDEDDNDVYILTKVSDILHSIFSSYKEKVLPWFEQLLPLIVNLICPHRPWPDRQWGLCIFDDVIEHCSPASFKYAEYFLRPMLQYVCDNSPEVRQAAAYGLGVMAQYGGDNYRPFCTEALPLLVRVIQSADSKTKENVNATENCISAVGKIMKFKPDCVNVEEVLPHWLSWLPLHEDKEEAVQTFNYLCDLIESNHPIVLGPNNTNLPKIFSIIAEGEMHEAIKHEDPCAKRLANVVRQVQTSGGLWTECIAQLSPEQQAAIQELLNSA
Turning to B3, the binding result in experiment [1] is on record as “binds”.
